# Experimental data: PubChem BioAssay AID1053208 (Peter MacCallum Cancer Centre, 2014)
# Purpose: 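Find knock-downs that sensitise mouse osteosarcoma cells to doxorubicin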 (primary screen)
# Cell system: mouse osteosarcoma cells, early-passage culture from an engineered mouse model of fibroblastic bone tumour
# Reagents: siRNA pool against mouse genes, 40 nM
# Duration: about 120 h (48 h before drug, then 72 h with drug)
# Treatment: doxorubicin 100 nM for 72 h, roughly 30-40% inhibitory dose
# Measurement: 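Luminescent ATP signal taken as viability with or without 100 nM doxorubicin for 72 h; mean of two wells set against non-targeting siRNA and turned into robust z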
# Direction: viability z-score with doxorubicin and doxorubicin viability vs non-targeting: higher = more viable cells under doxorubicin; viability z-score without drug: higher = more viable cells with knock-down alone; z-score of drug to no-drug ratio: higher = less drug sensitisation by knock-down
# Call rule: 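Called active if knock-down leaves viability unchanged without drug (z within -2 to 2) but lowers it with doxorubicin (z at or under -2)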
# The deposit covers about 17,000 reagents; below is an unselected part. In the full data, 788 (4.7%) are marked active. 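Calls rest on z-score classes alone; an extra cut-off of viability at most 70% of control was not applied to them.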 Entries without a mark were called inactive. Some reagents were tested in more than one well and are listed for each.
gene symbol,combined z-score class,viability z-score with doxorubicin,viability z-score without drug,z-score of drug to no-drug ratio,doxorubicin viability vs non-targeting
Nkap,no change with or without drug,1.24,1.18,0.56,1.05
4930544M13Rik,no change with or without drug,1.8,0.84,1.35,1.1
Runx1t1,no change with or without drug,-0.67,-1.52,0.45,0.88
Smg8,no change with or without drug,-1.01,0.17,-1.01,0.85
Msantd4,no change with or without drug,-1.12,-0.84,-0.56,0.84
Rnf133,no change with or without drug,-0.67,0.51,-0.9,0.88
Tas2r131,no change with or without drug,-0.67,-0.17,-0.45,0.88
Tmt1a,no change with or without drug,-0.45,0.17,-0.45,0.9
Tmem215,no change with or without drug,0.9,-0.67,1.57,1.02
Pisd,no change with or without drug,-0.34,0.84,-0.79,0.91
Pbx4,no change with or without drug,-1.12,-1.52,0,0.84
Pik3r3,no change with or without drug,-0.67,-0.67,-0.11,0.88
Caskin1,no change with or without drug,-1.35,-0.17,-1.24,0.82
Pak4,no change with or without drug,0.22,-0.84,1.01,0.96
A430005L14Rik,no change with or without drug,-0.22,-0.67,0.34,0.92
Tpbg,no change with or without drug,-0.45,-0.84,0.22,0.9
Zscan21,no change with or without drug,0.9,1.18,0.22,1.02
Tm4sf5,no change with or without drug,-1.57,-0.67,-1.12,0.8
Dync1i2,no change with or without drug,1.8,0.17,1.91,1.1
Ralgds,no change with or without drug,0.9,-0.34,1.35,1.02
Or1j13,no change with or without drug,-1.12,-1.18,-0.34,0.84
Lca5,high cell count without drug only,0.45,3.2,-1.35,0.98
Ints5,no change with or without drug,-1.57,-1.85,-0.34,0.8
Vill,no change with or without drug,0.22,1.52,-0.67,0.96
Notum,high cell count with doxorubicin only,2.14,1.69,1.12,1.13
Sdhb,no change with or without drug,-0.67,0.51,-0.9,0.88
Arih2,no change with or without drug,0.45,-0.84,1.24,0.98
Bin3,no change with or without drug,-0.22,-0.17,0,0.92
Wnk2,no change with or without drug,0.67,0.34,0.56,1
Ttll6,no change with or without drug,0.22,0.17,0.22,0.96
Or6b1,no change with or without drug,-0.79,-1.85,0.67,0.87
Stk24,no change with or without drug,0,-1.01,0.9,0.94
Cenatac,low cell count with doxorubicin only (active),-2.02,-0.17,-1.91,0.76
Rps10,low cell count with and without drug,-5.62,-4.89,-3.48,0.44
Prps1l1,low cell count with doxorubicin only (active),-4.05,0.51,-4.38,0.58
Prps1l1,no change with or without drug,-0.56,-0.51,-0.11,0.89
Ciapin1,no change with or without drug,1.01,0.51,0.79,1.03
Or8g2b,no change with or without drug,-1.35,-0.51,-1.01,0.82
Fxr1,no change with or without drug,0.45,0,0.56,0.98
Fkrp,no change with or without drug,-0.34,0.84,-0.79,0.91
A330035P11Rik,no change with or without drug,-0.11,-0.51,0.34,0.93
Tiparp,no change with or without drug,0.67,1.18,0,1
Pcdhga5,no change with or without drug,-1.8,1.01,-2.36,0.78
H1f9,no change with or without drug,1.35,0.51,1.12,1.06
Apeh,no change with or without drug,1.01,0.67,0.67,1.03
Lrrc4c,no change with or without drug,0.45,0.67,0.11,0.98
Mbd6,no change with or without drug,-0.45,0.17,-0.45,0.9
Or4e2,no change with or without drug,-1.12,-1.85,0.22,0.84
Scrg1,no change with or without drug,0.79,0.17,0.79,1.01
Crkl,no change with or without drug,-1.69,-1.69,-0.56,0.79

Records above whose gene name begins with P or p:
gene symbol,combined z-score class,viability z-score with doxorubicin,viability z-score without drug,z-score of drug to no-drug ratio,doxorubicin viability vs non-targeting
Pisd,no change with or without drug,-0.34,0.84,-0.79,0.91
Pbx4,no change with or without drug,-1.12,-1.52,0,0.84
Pik3r3,no change with or without drug,-0.67,-0.67,-0.11,0.88
Pak4,no change with or without drug,0.22,-0.84,1.01,0.96
Prps1l1,low cell count with doxorubicin only (active),-4.05,0.51,-4.38,0.58
Prps1l1,no change with or without drug,-0.56,-0.51,-0.11,0.89
Pcdhga5,no change with or without drug,-1.8,1.01,-2.36,0.78
